The list shows a part of the results.
What was measured:
Test in all cases: log2 fold change, soluble protein after heating vs DMSO (PISA); higher = thermal stabilisation; K562 lysate, 10 uM; active = over 0.2 and 3.5 SD of the protein, either way, in both replicates (recomputed)
erlotinib = compound: C#Cc1cccc(Nc2ncnc3cc(OCCOC)c(OCCOC)cc23)c1 [erlotinib]
Procedure, shortened: (§1)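 Quantification was by TMTpro 16plex LC-MS/MS with equalised channel sums, applied to the supernatant after 21,000xg for 90 min. Samples were crude K562 extract at 1 mg/mL protein in PBS pH 7.4 with 1 mM MgCl2, treated with 10 μM compound for 30 min, heated for 3 min across 48°C-58°C, pooled and brought to 0.5% NP-40 at 4°C. Values are log-two fold changes in thermal stability relative to solvent controls, from duplicates.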

Sequences of proteins named here, by UniProt entry; tags and fusion partners are left off. A change or cut given only in a name is not applied to a line headed by its entry.
UniProt P09497: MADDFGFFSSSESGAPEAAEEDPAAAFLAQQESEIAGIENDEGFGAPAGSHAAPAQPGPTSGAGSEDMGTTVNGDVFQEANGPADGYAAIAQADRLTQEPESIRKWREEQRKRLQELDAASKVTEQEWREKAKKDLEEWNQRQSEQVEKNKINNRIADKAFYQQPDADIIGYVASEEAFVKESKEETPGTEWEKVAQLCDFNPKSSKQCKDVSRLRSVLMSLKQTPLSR
UniProt O96005: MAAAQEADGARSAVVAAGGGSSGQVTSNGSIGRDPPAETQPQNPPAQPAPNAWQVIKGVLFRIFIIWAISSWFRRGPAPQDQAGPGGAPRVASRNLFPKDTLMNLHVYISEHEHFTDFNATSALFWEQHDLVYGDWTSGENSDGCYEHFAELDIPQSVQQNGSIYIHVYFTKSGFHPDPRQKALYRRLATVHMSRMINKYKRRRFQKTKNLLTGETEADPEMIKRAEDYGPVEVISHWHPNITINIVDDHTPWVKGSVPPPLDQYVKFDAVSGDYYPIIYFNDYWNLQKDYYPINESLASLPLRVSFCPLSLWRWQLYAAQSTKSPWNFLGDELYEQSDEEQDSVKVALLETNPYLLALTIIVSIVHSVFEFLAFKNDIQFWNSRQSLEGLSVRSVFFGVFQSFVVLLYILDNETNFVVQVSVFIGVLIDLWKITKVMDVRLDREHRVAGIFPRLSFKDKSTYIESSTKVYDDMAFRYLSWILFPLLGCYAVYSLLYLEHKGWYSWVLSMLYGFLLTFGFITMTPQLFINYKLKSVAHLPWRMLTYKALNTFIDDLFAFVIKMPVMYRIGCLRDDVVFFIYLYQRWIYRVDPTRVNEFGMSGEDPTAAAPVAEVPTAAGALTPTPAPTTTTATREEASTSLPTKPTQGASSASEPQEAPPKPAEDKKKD
UniProt P30622: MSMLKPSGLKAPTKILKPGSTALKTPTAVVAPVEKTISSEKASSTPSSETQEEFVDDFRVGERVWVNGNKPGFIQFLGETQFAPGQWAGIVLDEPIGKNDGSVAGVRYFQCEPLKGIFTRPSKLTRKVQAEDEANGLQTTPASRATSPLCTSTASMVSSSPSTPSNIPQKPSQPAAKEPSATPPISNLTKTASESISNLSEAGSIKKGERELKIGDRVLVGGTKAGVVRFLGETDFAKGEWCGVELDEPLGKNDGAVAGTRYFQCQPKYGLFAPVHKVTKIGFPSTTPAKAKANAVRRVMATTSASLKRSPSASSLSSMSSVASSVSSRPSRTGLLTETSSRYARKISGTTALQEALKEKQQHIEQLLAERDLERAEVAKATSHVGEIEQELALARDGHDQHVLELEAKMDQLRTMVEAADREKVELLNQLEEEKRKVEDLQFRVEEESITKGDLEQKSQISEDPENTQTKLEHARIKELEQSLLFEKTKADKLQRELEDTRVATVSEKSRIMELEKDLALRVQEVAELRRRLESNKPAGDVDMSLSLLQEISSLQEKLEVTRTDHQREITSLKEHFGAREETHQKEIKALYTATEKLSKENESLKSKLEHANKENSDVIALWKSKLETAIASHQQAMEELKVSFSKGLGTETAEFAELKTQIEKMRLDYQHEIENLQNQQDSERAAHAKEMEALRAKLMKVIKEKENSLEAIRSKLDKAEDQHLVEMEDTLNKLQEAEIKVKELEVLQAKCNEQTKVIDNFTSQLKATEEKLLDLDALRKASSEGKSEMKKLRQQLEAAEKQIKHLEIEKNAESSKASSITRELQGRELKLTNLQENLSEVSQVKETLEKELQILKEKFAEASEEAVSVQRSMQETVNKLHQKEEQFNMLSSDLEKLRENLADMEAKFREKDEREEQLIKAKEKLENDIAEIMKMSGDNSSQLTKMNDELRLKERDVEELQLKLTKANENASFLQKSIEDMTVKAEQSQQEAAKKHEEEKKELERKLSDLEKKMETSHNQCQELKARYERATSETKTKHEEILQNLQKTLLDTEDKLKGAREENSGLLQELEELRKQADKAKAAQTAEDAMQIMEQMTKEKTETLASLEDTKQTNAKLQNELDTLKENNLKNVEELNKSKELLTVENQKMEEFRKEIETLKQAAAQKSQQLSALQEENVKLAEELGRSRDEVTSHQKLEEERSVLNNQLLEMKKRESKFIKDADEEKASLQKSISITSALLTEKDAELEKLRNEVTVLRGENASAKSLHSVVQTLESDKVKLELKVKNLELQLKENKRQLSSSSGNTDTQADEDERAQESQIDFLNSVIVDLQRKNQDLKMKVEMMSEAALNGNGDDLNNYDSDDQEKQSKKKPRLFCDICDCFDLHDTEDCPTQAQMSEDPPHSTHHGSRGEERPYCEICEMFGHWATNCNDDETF
UniProt O75122: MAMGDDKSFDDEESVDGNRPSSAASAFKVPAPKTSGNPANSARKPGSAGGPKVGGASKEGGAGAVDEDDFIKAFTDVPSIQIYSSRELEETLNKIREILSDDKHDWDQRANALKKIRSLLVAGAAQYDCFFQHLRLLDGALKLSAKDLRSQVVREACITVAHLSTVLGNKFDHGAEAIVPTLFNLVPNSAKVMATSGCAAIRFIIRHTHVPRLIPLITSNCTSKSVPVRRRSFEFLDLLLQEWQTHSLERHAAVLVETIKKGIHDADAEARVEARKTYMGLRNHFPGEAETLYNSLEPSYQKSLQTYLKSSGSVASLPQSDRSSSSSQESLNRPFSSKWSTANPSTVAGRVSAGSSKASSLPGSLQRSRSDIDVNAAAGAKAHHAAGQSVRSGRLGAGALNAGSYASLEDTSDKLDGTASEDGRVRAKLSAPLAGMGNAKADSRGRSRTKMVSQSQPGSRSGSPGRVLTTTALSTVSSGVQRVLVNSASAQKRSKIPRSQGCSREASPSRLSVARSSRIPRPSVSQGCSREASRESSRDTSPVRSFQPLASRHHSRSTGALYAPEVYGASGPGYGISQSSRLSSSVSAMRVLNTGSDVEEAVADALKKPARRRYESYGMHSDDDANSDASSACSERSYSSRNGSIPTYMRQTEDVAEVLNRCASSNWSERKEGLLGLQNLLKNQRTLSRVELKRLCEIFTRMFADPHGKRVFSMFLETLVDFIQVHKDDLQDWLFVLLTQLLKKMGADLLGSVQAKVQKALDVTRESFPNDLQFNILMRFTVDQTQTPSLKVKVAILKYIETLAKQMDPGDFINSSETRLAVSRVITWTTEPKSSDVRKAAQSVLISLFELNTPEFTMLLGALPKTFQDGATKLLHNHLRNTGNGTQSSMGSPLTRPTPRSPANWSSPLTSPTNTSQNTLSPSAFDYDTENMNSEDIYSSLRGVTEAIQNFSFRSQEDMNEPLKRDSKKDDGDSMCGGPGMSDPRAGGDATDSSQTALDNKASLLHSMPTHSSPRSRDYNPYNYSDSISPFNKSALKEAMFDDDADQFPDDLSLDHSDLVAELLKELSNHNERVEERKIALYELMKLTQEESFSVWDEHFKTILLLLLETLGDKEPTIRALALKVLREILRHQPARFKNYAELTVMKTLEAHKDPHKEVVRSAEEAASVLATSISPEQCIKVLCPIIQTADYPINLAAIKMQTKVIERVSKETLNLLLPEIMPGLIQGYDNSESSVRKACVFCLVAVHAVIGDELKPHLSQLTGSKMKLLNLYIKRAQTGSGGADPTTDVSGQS
UniProt Q9HAW4: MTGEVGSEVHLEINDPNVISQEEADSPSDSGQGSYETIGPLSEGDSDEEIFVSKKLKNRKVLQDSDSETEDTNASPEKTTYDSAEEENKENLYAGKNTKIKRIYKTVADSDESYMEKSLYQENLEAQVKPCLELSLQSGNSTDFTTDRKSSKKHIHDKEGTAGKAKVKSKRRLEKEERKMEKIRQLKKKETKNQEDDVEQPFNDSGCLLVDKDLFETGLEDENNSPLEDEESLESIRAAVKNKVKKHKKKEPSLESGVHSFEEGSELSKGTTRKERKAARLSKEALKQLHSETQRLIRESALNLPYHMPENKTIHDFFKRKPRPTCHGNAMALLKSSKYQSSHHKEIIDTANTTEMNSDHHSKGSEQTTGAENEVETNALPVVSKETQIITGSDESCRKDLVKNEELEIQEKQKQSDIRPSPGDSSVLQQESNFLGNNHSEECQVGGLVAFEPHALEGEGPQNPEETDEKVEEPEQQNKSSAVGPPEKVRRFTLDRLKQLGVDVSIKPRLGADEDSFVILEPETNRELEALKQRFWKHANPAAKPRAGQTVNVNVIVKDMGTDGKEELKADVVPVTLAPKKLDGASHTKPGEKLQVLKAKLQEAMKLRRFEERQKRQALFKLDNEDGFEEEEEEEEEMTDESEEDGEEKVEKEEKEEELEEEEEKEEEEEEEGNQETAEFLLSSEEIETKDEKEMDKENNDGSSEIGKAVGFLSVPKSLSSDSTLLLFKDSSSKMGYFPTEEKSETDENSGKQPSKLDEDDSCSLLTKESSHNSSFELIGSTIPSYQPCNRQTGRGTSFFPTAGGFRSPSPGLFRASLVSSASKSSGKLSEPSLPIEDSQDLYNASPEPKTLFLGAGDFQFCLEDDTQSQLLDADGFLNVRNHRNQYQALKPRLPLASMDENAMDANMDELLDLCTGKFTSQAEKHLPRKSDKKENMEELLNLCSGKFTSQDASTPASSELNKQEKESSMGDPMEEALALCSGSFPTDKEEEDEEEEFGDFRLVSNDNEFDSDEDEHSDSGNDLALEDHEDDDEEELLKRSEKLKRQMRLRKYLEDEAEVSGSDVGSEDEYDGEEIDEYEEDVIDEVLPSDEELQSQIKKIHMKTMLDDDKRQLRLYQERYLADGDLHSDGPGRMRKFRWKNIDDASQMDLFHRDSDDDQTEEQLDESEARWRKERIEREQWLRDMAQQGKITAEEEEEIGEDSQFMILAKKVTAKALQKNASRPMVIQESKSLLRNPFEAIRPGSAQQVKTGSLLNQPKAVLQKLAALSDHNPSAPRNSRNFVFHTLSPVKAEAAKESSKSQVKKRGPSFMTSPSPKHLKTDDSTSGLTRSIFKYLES
UniProt Q96KA5: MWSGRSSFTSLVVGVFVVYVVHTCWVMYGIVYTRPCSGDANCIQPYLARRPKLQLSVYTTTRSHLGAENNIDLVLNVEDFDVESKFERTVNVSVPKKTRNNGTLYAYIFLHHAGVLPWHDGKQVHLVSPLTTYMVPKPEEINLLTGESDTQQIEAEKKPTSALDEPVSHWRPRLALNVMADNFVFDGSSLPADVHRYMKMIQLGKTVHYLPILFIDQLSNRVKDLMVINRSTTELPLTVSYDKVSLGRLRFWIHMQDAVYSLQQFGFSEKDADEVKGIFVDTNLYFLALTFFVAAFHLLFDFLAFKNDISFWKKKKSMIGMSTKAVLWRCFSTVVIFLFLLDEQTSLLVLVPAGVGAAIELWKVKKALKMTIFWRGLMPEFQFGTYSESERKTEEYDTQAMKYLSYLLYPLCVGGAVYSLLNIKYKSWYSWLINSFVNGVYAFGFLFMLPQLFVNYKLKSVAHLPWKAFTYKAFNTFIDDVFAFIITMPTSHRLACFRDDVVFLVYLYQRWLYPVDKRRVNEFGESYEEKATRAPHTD
UniProt Q99653: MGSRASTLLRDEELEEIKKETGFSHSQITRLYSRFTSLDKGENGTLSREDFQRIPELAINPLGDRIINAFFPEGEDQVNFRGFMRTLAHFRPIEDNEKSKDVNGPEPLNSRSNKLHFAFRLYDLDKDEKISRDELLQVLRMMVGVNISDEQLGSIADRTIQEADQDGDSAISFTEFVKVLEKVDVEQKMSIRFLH
UniProt Q9NY35: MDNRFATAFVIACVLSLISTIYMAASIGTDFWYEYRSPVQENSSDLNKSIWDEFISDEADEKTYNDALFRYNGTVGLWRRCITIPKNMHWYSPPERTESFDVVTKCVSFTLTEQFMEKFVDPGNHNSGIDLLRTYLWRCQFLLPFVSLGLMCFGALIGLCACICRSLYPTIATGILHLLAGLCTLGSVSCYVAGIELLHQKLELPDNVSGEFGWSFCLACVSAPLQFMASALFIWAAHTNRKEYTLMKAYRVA
UniProt Q16740, whole entry, looked up: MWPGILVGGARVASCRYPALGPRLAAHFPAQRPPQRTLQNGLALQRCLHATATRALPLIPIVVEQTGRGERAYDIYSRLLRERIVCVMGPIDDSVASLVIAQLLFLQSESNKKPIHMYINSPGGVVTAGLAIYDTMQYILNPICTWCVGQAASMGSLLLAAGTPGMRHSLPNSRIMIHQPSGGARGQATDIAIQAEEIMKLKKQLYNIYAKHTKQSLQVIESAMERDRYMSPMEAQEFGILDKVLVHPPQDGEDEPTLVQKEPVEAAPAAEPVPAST
UniProt O15247: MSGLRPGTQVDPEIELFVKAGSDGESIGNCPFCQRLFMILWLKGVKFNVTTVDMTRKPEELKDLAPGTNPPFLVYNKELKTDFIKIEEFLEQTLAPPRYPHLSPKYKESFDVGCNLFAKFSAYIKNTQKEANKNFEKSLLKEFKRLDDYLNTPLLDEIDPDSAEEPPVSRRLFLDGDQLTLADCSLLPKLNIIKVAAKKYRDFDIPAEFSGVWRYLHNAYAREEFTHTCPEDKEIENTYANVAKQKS

[1] = compound: C/C(=N\NC(=O)C1=CC(=CC=C1)S(=O)(=O)N2CCOCC2)/C3=C(C=CC(=C3)Cl)O
Procedure, shortened: as §1

[2] = compound: C1=CC(=CC=C1C2=NC3=C(N2)C=C(C=C3)C(=O)N)OC4=CC=C(C=C4)Cl
Procedure, shortened: as §1

[3] = compound: C1=CC2=C(C=CC(=C2)/C=C\3/C(=O)NC(=NCC4=CC=CS4)S3)N=C1
Procedure, shortened: as §1

[4] = compound: C1=CC2=NC=CN=C2C=C1/C=C/3\C(=O)NC(=O)S3
Procedure, shortened: as §1

[5] = compound: C1=CC=C(C=C1)C2=NC(=C(N2)C3=CC=NC=C3)C4=CC(=C(C=C4)Cl)O
Procedure, shortened: as §1

[6] = compound: C1=CC=C2C(=C1)C3=NNC4=CC=CC(=C43)C2=O
Procedure, shortened: as §1

[7] = compound: C1CCN(C1)C(=O)NC2=CC=CC(=C2)NC3=NC=C(C(=N3)NCCC4=CN=CN4)Br
Procedure, shortened: as §1

[8] = compound: C1CN(CCC1(CC2=CC=C(C=C2)Cl)N)C3=NC=NC4=C3C=CN4
Procedure, shortened: as §1

IRAK-1-4 Inhibitor I = compound: C1COCCN1CCN2C3=CC=CC=C3N=C2NC(=O)C4=CC(=CC=C4)[N+](=O)[O-] [IRAK-1-4 Inhibitor I]
Procedure, shortened: as §1

[9] = compound: CC(=O)c1cnc2ccc(-c3cc(Cl)c(O)c(Cl)c3)nc2c1N[C@H]1CC[C@H](CN(C)C)CC1
Procedure, shortened: as §1

ralimetinib = compound: CC(C)(C)Cn1c(N)nc2ccc(-c3[nH]c(C(C)(C)C)nc3-c3ccc(F)cc3)nc21 [ralimetinib]
Procedure, shortened: as §1

[10] = compound: CC(C)(O)CC(=O)NCCn1ccc2ncnc(Nc3ccc(Oc4cccc(C(F)(F)F)c4)c(Cl)c3)c21
Procedure, shortened: as §1

[11] = compound: CC(C)C1=C2N=C(C=C(N2N=C1)NCC3=CC=CC=C3)NCCCCCCN
Procedure, shortened: as §1

[12] = compound: CC1=C(C(CC(=O)N1)C2=CC=C(C=C2)C(F)(F)F)C(=O)NC3=C(C=C4C(=C3)C=NN4)F
Procedure, shortened: as §1

[13] = compound: CC1=C(C2=C(C=C1)C(=O)C3=CC=CC=C3N2CCCN)C
Procedure, shortened: as §1

[14] = compound: CC1=C(C=C(C=C1)NC(=O)C2=CC(=CC=C2)C(C)(C)C#N)NC3=CC4=C(C=C3)N=CN(C4=O)C
Procedure, shortened: as §1

[15] = compound: CC1=C(C=C(C=C1)NC(=O)C2=CC(=CC=C2)N(C)C)NC(=O)C3=CC=C(C=C3)O
Procedure, shortened: as §1

[16] = compound: CC1=CC=C(C=C1)SC2=C3C=C(SC3=CN=C2)C(=O)N
Procedure, shortened: as §1

ibrutinib = compound: C=CC(=O)N1CCC[C@@H](n2nc(-c3ccc(Oc4ccccc4)cc3)c3c(N)ncnc32)C1 [ibrutinib]
Procedure, shortened: as §1

Measured: log2 fold change

CLTB isoform 2 (UniProt P09497)
inactive: erlotinib 0.001 | [1] -0.005 | [2] 0.038 | [3] -0.016 | [4] 0.007 | [5] -0.006 | [6] 0.017 | [7] 0.017 | [8] -0.018 | IRAK-1-4 Inhibitor I 0.004 | [9] -0.016 | ralimetinib 0.011 | [10] -0.009 | [11] 0.01 | [12] -0.029 | [13] -0.013 | [14] 0.02 | [15] -0.023 | [16] -0.029

CLPTM1 (UniProt O96005)
inactive: erlotinib -0.011 | [1] -0.028 | [2] -0.013 | [3] 0.023 | [4] -0.001 | [5] -0.027 | [6] -0.119 | [7] -0.012 | [8] 0.019 | IRAK-1-4 Inhibitor I 0.001 | [9] -0.042 | ralimetinib 0.005 | [10] 0.021 | [11] -0.038 | [12] -0.007 | [13] 0.034 | [14] 0.023 | [15] -0.021 | [16] -0.012

CLIP1 isoform 1 (UniProt P30622)
inactive: erlotinib -0.025 | [1] -0.026 | [2] 0.019 | [3] -0.005 | [4] -0.018 | [5] 0.005 | [6] 0.002 | [7] 0 | [8] -0.012 | IRAK-1-4 Inhibitor I 0.007 | [9] -0.005 | ralimetinib 0.004 | [10] 0 | [11] -0.008 | [12] -0.01 | [13] -0.016 | [14] 0.006 | [15] 0.003 | [16] -0.004

CLASP2 isoform 3 (UniProt O75122)
inactive: erlotinib 0.032 | [1] -0.014 | [2] -0.022 | [3] -0.032 | [4] -0.018 | [5] 0 | [6] -0.024 | [7] -0.024 | [8] 0.057 | IRAK-1-4 Inhibitor I -0.012 | [9] 0.004 | ralimetinib 0.019 | [10] -0.014 | [11] 0.025 | [12] 0.019 | [13] -0.008 | [14] 0.023 | [15] 0.042 | [16] 0.004

CLSPN (UniProt Q9HAW4)
inactive: erlotinib -0.053 | [1] -0.01 | [2] -0.007 | [3] 0.024 | [4] 0.001 | [5] 0.027 | [6] 0.046 | [7] -0.041 | [8] 0.001 | IRAK-1-4 Inhibitor I 0.006 | [9] 0 | ralimetinib -0.006 | [10] 0.026 | [11] -0.029 | [12] 0.011 | [13] 0.001 | [14] 0.067 | [15] -0.02 | [16] 0.004

CLIC1 (UniProt O00299)
inactive: erlotinib 0.009 | [1] 0.011 | [2] 0.038 | [3] -0.008 | [4] -0.001 | [5] -0.026 | [6] 0.009 | [7] -0.001 | [8] 0 | IRAK-1-4 Inhibitor I 0.005 | [9] -0.004 | ralimetinib 0.006 | [10] -0.007 | [11] 0.008 | [12] -0.016 | [13] -0.006 | [14] 0.002 | [15] -0.025 | [16] 0.004

CLPTM1L (UniProt Q96KA5)
inactive: erlotinib -0.019 | [1] 0.014 | [2] -0.143 | [3] -0.01 | [4] 0.009 | [5] -0.052 | [6] -0.197 | [7] -0.059 | [8] 0.091 | IRAK-1-4 Inhibitor I -0.01 | [9] -0.011 | ralimetinib 0.041 | [10] -0.041 | [11] 0.048 | [12] 0.058 | [13] 0.081 | [14] -0.024 | [15] 0.039 | [16] -0.005

Looked up one by one from above, 2 records:
CLASP2 isoform 3 (UniProt O75122)
inactive: erlotinib 0.032 | [1] -0.014 | [2] -0.022 | [3] -0.032 | [4] -0.018 | [5] 0 | [6] -0.024 | [7] -0.024 | [8] 0.057 | IRAK-1-4 Inhibitor I -0.012 | [9] 0.004 | ralimetinib 0.019 | [10] -0.014 | [11] 0.025 | [12] 0.019 | [13] -0.008 | [14] 0.023 | [15] 0.042 | [16] 0.004

CLIP1 isoform 1 (UniProt P30622)
inactive: erlotinib -0.025 | [1] -0.026 | [2] 0.019 | [3] -0.005 | [4] -0.018 | [5] 0.005 | [6] 0.002 | [7] 0 | [8] -0.012 | IRAK-1-4 Inhibitor I 0.007 | [9] -0.005 | ralimetinib 0.004 | [10] 0 | [11] -0.008 | [12] -0.01 | [13] -0.016 | [14] 0.006 | [15] 0.003 | [16] -0.004

Next part

CHCHD2 (UniProt Q9Y6H1)
inactive: erlotinib -0.068 | [1] -0.03 | [2] -0.086 | [3] 0.033 | [4] -0.024 | [5] 0.027 | [6] 0.092 | [7] 0.009 | [8] 0.057 | IRAK-1-4 Inhibitor I -0.005 | ibrutinib -0.122 | [9] -0.005 | ralimetinib -0.068 | [10] 0.035 | [11] 0.02 | [12] 0.112 | [13] 0.023 | [14] -0.172 | [15] -0.046 | [16] 0.069

CLGN (UniProt O14967)
inactive: erlotinib 0.026 | [1] -0.058 | [2] 0.018 | [3] -0.003 | [4] 0.026 | [5] 0 | [6] -0.083 | [7] 0.024 | [8] 0.052 | IRAK-1-4 Inhibitor I 0.005 | [9] -0.021 | ralimetinib 0.027 | [10] -0.025 | [11] -0.051 | [12] -0.004 | [13] -0.002 | [14] 0 | [15] -0.002 | [16] -0.062

CHP1 (UniProt Q99653)
inactive: erlotinib 0.027 | [1] -0.085 | [2] 0.021 | [3] 0.023 | [4] -0.106 | [5] -0.015 | [6] -0.047 | [7] 0.015 | [8] 0.024 | IRAK-1-4 Inhibitor I 0.005 | ibrutinib 0.084 | [9] -0.011 | ralimetinib -0.01 | [10] -0.052 | [11] -0.003 | [12] 0.002 | [13] -0.028 | [14] -0.008 | [15] 0.024 | [16] -0.01

CLDND1 (UniProt Q9NY35)
inactive: erlotinib -0.088 | [1] -0.05 | [2] -0.071 | [3] 0.015 | [4] 0.026 | [5] -0.021 | [6] -0.059 | [7] 0 | [8] -0.072 | IRAK-1-4 Inhibitor I -0.033 | [9] 0.019 | ralimetinib 0.051 | [10] 0.045 | [11] -0.028 | [12] 0 | [13] -0.042 | [14] 0.018 | [15] 0.046 | [16] -0.068

CHORDC1 (UniProt Q9UHD1)
inactive: erlotinib 0.015 | [1] 0.007 | [2] 0.017 | [3] 0.001 | [4] 0.004 | [5] 0.002 | [6] 0.005 | [7] -0.007 | [8] 0.015 | IRAK-1-4 Inhibitor I -0.016 | ibrutinib -0.002 | [9] 0.004 | ralimetinib -0.009 | [10] -0.001 | [11] -0.032 | [12] -0.009 | [13] 0.001 | [14] 0.023 | [15] 0.033 | [16] 0.006

CLUH, A0A494C0R8
inactive: erlotinib 0.077 | [1] -0.023 | [2] -0.041 | [3] 0.02 | [4] 0.225 | [5] 0 | [6] -0.114 | [7] 0.05 | [8] -0.063 | IRAK-1-4 Inhibitor I 0.008 | [9] 0.138 | ralimetinib 0.053 | [10] -0.043 | [11] 0.002 | [12] -0.128 | [13] 0 | [14] 0.016 | [15] -0.035 | [16] 0.029

CLPP (UniProt Q16740)
inactive: erlotinib -0.045 | [1] 0.026 | [2] -0.015 | [3] 0.043 | [4] -0.008 | [5] -0.031 | [6] 0.013 | [7] 0.007 | [8] 0.033 | IRAK-1-4 Inhibitor I -0.007 | [9] 0.017 | ralimetinib -0.006 | [10] 0.005 | [11] 0.044 | [12] 0.011 | [13] -0.037 | [14] 0.013 | [15] -0.04 | [16] 0.038

CLCC1 (UniProt Q96S66)
inactive: erlotinib -0.026 | [1] -0.042 | [2] -0.006 | [3] 0.004 | [4] -0.019 | [5] 0.003 | [6] -0.094 | [7] -0.003 | [8] -0.016 | IRAK-1-4 Inhibitor I -0.008 | [9] 0.007 | ralimetinib -0.012 | [10] 0.057 | [11] -0.013 | [12] -0.004 | [13] 0.01 | [14] -0.037 | [15] -0.03 | [16] -0.011

CLIC2 (UniProt O15247)
inactive: erlotinib 0.036 | [1] 0.022 | [2] -0.005 | [3] -0.03 | [4] -0.014 | [5] -0.014 | [6] -0.014 | [7] 0.019 | [8] 0.015 | IRAK-1-4 Inhibitor I 0.006 | [9] -0.014 | ralimetinib 0.004 | [10] 0.004 | [11] 0.04 | [12] -0.01 | [13] 0.018 | [14] 0.005 | [15] 0.006 | [16] 0.001

CLUH (UniProt O75153)
inactive: erlotinib -0.011 | [1] 0.018 | [2] -0.006 | [3] 0.051 | [4] 0.21 | [5] -0.013 | [6] -0.014 | [7] -0.009 | [8] -0.005 | IRAK-1-4 Inhibitor I -0.007 | [9] 0.093 | ralimetinib 0.008 | [10] -0.004 | [11] -0.044 | [12] -0.01 | [13] 0 | [14] -0.001 | [15] 0.006 | [16] 0.008

Source: the supplement of paper PMC10849652
